# Percent effect of library compounds

Data taken from ChEMBL document CHEMBL3988442, “University of Dundee, Small-Polar-MMV Screening Library” (2021).

Results are given as percent effect. How 0% and 100% were set is not recorded. Most values in the screen are low, and negative values occur. This is an unselected part of the compounds tested. Two or more numbers in one place are separate tests of the same structure; such repeats can differ widely.

Mtb cholesterol medium: 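Whole-cell growth test on Mycobacterium tuberculosis, read after 4 days in a medium based on cholesterol and the lipid DPPC; the read-out is not stated. Compounds at 50 µM. Direction is inferred from retests: higher values go with more growth inhibition. Size under these conditions: about 69,000 compounds, about 370 of them at 50% or above in at least one test.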
Mtb glucose medium: 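Growth of Mycobacterium tuberculosis over 3 days (7H9 medium with glucose and tyloxapol); the read-out is not stated. Concentration: 50 µM. The record gives no direction; compounds that gave an IC50 in retests scored well above the rest, so higher reads as more growth inhibition. About 69,000 compounds were tested under these conditions; 1.1% (about 760) showed 50% or more at least once.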

SMILES: Cn1cc(C2=CCN(CCCC(=O)Nc3ccc(C#N)cc3)CC2)cn1
Mtb cholesterol medium: 4.938%
Mtb glucose medium: -20.58%

SMILES: Cc1cccc(-c2nccn2-c2cccc(CC(=O)O)c2)n1
Mtb cholesterol medium: -0.4763%
Mtb glucose medium: -28.26%

SMILES: Cc1csc2c(C3CCN(CCCOc4ccccc4)CC3)nc(C)n12
Mtb cholesterol medium: 18.47% & 8.706%
Mtb glucose medium: 45.83%

SMILES: CC(NCc1ccc(OCc2nccn2C)cc1)c1cccnc1 (stereo not shown)
Mtb cholesterol medium: -22.13%
Mtb glucose medium: -23.83%

SMILES: CSc1nnc(CC2CCN(C(=O)Cc3ccncc3)CC2)n1C
Mtb cholesterol medium: -2%
Mtb glucose medium: -8.617%

SMILES: CCC(CNC(=O)c1ccc(C(N)=O)cc1)Oc1cccc(F)c1 (stereo not shown)
Mtb cholesterol medium: 2.771%
Mtb glucose medium: -1.363% & -0.07378%

SMILES: O=C(C1CCCN(Cc2ccccc2)C1)N1CCc2sccc2C1 (stereo not shown)
Mtb cholesterol medium: 13.87%
Mtb glucose medium: 8.653%

SMILES: CN1CCN(C2CCN(CC(O)c3ccccc3F)CC2)C1=O (stereo not shown)
Mtb cholesterol medium: -6.141%
Mtb glucose medium: -9.643% & -18.8%

SMILES: COc1cc(-c2noc(C(CC(C)C)N3CCCCC3=O)n2)ccn1 (stereo not shown)
Mtb cholesterol medium: 10.05%
Mtb glucose medium: -0.7518%

SMILES: CC(CN1CCOCC1)NC(=O)N1CCCC1 (stereo not shown)
Mtb cholesterol medium: 8.813%
Mtb glucose medium: -5.803%

SMILES: [H][C@@]12CN(c3nc(C)cnc3C)C[C@]1([H])N(Cc1ccccc1OC)C(=O)O2
Mtb cholesterol medium: 6.229% & -2.086%
Mtb glucose medium: 5.123%

SMILES: CN(C)c1nccc(CNS(=O)(=O)c2cc(Cl)cc(Cl)c2)n1
Mtb cholesterol medium: -5.764%
Mtb glucose medium: -4.848%

SMILES: CN1CC(C(=O)NC(C)(C)C)CC1=O (stereo not shown)
Mtb cholesterol medium: 2.824%
Mtb glucose medium: 2.063%

SMILES: CC(C)OCCCNC(=O)CS(=O)(=O)Cc1cccc(Cl)c1
Mtb cholesterol medium: -7.288%
Mtb glucose medium: 9.604%

SMILES: c1c[nH]c2nc(C3CCNC3)nc-2c1 (stereo not shown)
Mtb cholesterol medium: 1.861%
Mtb glucose medium: 33.72%

SMILES: C[C@@H]1CN(C2(C(=O)N3CCNCC3)Cc3ccccc3C2)C[C@H](C)O1
Mtb cholesterol medium: -23.78%
Mtb glucose medium: -11.66% & -1.286%

SMILES: CCc1ccccc1CNC(=O)CNCC(F)(F)F
Mtb cholesterol medium: 39.05%
Mtb glucose medium: 52.62%

SMILES: CC(Cn1cccn1)NCc1cccc(C#N)c1 (stereo not shown)
Mtb cholesterol medium: -3.391% & -15.65%
Mtb glucose medium: -5.779%

SMILES: CCN(CC)C1COc2ccc(Br)cc2C1=O (stereo not shown)
Mtb cholesterol medium: -80.32%

SMILES: CC(C)C(=O)N1CCN(Cc2ccccn2)CC2(CC(=O)N(C)C2)C1.O=C(O)C(F)(F)F.O=C(O)C(F)(F)F (stereo not shown)
Mtb cholesterol medium: 2.507% & -15.74%
Mtb glucose medium: -2.825%

SMILES: Cn1c(N)nnc1SCc1ccc(Cl)cc1Br
Mtb cholesterol medium: 21.79%
Mtb glucose medium: 6.092%

SMILES: Cc1cc(NC(C)c2nnn[nH]2)n2nc(C)c(C)c2n1 (stereo not shown)
Mtb cholesterol medium: -22.85%
Mtb glucose medium: -8.367%

SMILES: Cc1noc(CNC(=O)[C@@H](C)NC(=O)OC(C)(C)C)n1
Mtb cholesterol medium: 0.9994%
Mtb glucose medium: 10.9% & -0.9045%

SMILES: Cc1nc(C2CCCN(C(=O)c3cc4c(s3)CCCC4)C2)no1 (stereo not shown)
Mtb cholesterol medium: 39.58%
Mtb glucose medium: 10.11% & 51.1%

SMILES: Cn1cc(CCCNC(=O)NCC(O)c2ccsc2)cn1 (stereo not shown)
Mtb cholesterol medium: -0.8695%
Mtb glucose medium: 12.93%

SMILES: Cc1cnc(CC2COCCN(C(=O)CN3CCOCC3)C2)cn1 (stereo not shown)
Mtb cholesterol medium: -0.9929%
Mtb glucose medium: -10.29%

SMILES: CC(C)COc1ccccc1C(N)CC(C)C (stereo not shown)
Mtb cholesterol medium: 18.36%
Mtb glucose medium: 37.44% & 2.642%

SMILES: CCC(C)NC(=O)c1ccccc1-n1cnnn1 (stereo not shown)
Mtb cholesterol medium: -3.546%
Mtb glucose medium: 10.19%

SMILES: CCc1[nH]ncc1C(=O)N1CCN(c2nc(C)cc(OC)n2)CC1
Mtb cholesterol medium: -12.01%
Mtb glucose medium: -10.95% & 10.43%

SMILES: CCN1CCN(C2(C(=O)NC3CCCC3)Cc3ccccc3C2)CC1
Mtb cholesterol medium: -0.9795% & -8.613%
Mtb glucose medium: 8.316%

SMILES: CCN(CC)c1ncc(Cl)c(C(=O)NC2CCc3nccn3C2)n1 (stereo not shown)
Mtb cholesterol medium: -1.468%
Mtb glucose medium: -10.22%

SMILES: O=C(O)C(F)(F)F.[H][C@@]12C[C@H](C(=O)NC3CC3)CN(CC3CC3)[C@]1([H])CCO2
Mtb cholesterol medium: -6.818%
Mtb glucose medium: -7.258%

SMILES: CNC(=O)NCC1CCC2(CCN(c3ncccn3)CC2)CO1 (stereo not shown)
Mtb cholesterol medium: 0.7231%
Mtb glucose medium: -5.373%

SMILES: CCOc1ccc2[nH]c(=O)c(CN3CCC(N4CCCC4)CC3)cc2c1
Mtb cholesterol medium: 6.696%
Mtb glucose medium: -17.57%

SMILES: CC(=O)NC1CCN(c2nc(N(C)C)nc3c2CCN(C(C)=O)C3)CC1
Mtb cholesterol medium: -1.28% & 2.089%
Mtb glucose medium: 16.7% & 2.281%

SMILES: [H][C@@]12CCCCCN(C(C)=O)[C@@]1([H])[C@H](c1cccc(F)c1)CN2CCC(N)=O
Mtb cholesterol medium: -8.472% & -5.112%
Mtb glucose medium: -24.16%

SMILES: CC1=CC(C)(C)N(CN2C(=O)c3ccccc3C2=O)c2ccccc21
Mtb cholesterol medium: -15.35%
Mtb glucose medium: -11.65%

SMILES: CC(=O)N(C)CC(=O)Nc1ccc(C)cc1OCc1ccccc1
Mtb cholesterol medium: -4.026%
Mtb glucose medium: 6.342% & 12.49%

Some entries from above, unchanged:

{"smiles": "Cc1csc2c(C3CCN(CCCOc4ccccc4)CC3)nc(C)n12", "Mtb cholesterol medium": "18.47 & 8.706", "Mtb glucose medium": 45.83}
{"smiles": "Cc1cc(NC(C)c2nnn[nH]2)n2nc(C)c(C)c2n1", "stereo": "stereo not shown", "Mtb cholesterol medium": -22.85, "Mtb glucose medium": -8.367}
{"smiles": "CCN(CC)c1ncc(Cl)c(C(=O)NC2CCc3nccn3C2)n1", "stereo": "stereo not shown", "Mtb cholesterol medium": -1.468, "Mtb glucose medium": -10.22}
{"smiles": "CNC(=O)NCC1CCC2(CCN(c3ncccn3)CC2)CO1", "stereo": "stereo not shown", "Mtb cholesterol medium": 0.7231, "Mtb glucose medium": -5.373}